# Values quoted from earlier work in patent US20230181690A1, “METHODS FOR TREATING ANEMIA USING AN ACTRIIB LIGAND TRAP AND FEDRATINIB” (Celgene Corporation, priority 2020, published 2023).
# At least one compound was matched to its structure with a doubt left.
# System: MPN-associated myelofibrosis
# Details: patients
smiles,measurement,value
N#CC[C@H](C1CCCC1)n1cc(-c2ncnc3[nH]ccc23)cn1 [ruxolitinib],spleen size and symptoms,"significant improvements in spleen size, and symptom mitigation"
